The values that follow come from PubChem BioAssay AID493014 (National Center for Advancing Translational Sciences (NCATS), 2011).

In general, AC50 refers to the midpoint of the concentration-response curve, whichever way the signal moves.

This is one part of the list. Shown are side measurements of this screen, not its main read-out; they come without a call. The list favours compounds with an active or inconclusive main result. Potencies come from curve fits of mixed quality, noted in brackets.

A short description of the assay: qHTS Assay to Find Inhibitors of Chronic Active B-Cell Receptor Signaling. The settings on record: ABC-DLBCL IkBa-CBG/CBR reporter, luminescence ratio (green luciferase fused to IkBa over red control in TMD8 lymphoma cells), 4 h. An outline of the steps: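 Compounds up to 46 uM were incubated four hours with TMD8 cells whose green CBG68 luciferase is fused to IkappaBalpha; red CBR luminescence normalised the signal, and concentration-effect curves were fitted to fusion, red and ratio data.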
For orientation: Quantitative high-throughput screening tests each substance at several concentrations.

Setting [1] is: measured here: CBR red luminescence, cell number.

Take `Cc1ccc(OCc2n[nH]c(=S)n2-c2ccc(C)cc2)cc1`: the AC50 under setting [1] was 2.82 µM [rising, partial curve, poor fit].
As for `Cc1ccc(NC(=S)N(Cc2cccs2)Cc2cc3cccc(C)c3[nH]c2=O)cc1`, the concentration at half-maximal activity (AC50) under setting [1] was 1.46 µM [rising, full curve, poor fit].
Still for that read-out and setting: the same measure for `O=C(NNC(=O)c1ccccc1O)c1ccc(Cl)c(S(=O)(=O)N2CCCCC2)c1`: 25.9 µM [falling, single point]; for `CCn1cnc2c(NCCc3cccnc3)nc(C#N)nc21`: 5.17 µM [falling, single point]; for `CCOCCn1c(N2CCN(c3ccccc3)CC2)nc2c1c(=O)n(C)c(=O)n2C`: 0.13 µM [falling, full curve, poor fit].
Turning to `COc1ccc(N2CCN(C(=O)CSc3nnc4c(C)cc5ccc(C)c(C)c5n34)CC2)cc1`, under setting [1], the AC50 is 4.11 µM [rising, single point].
As to `O=S(=O)(Cc1ccccc1)N1CCN(Cc2ccc(Br)cc2)CC1`, under setting [1], the AC50 was 8.91 µM [falling, partial curve, poor fit].
Same read-out and setting: the same measure for `O=C(N/N=C/c1ccc(O)cc1)/C(=C/c1ccc([N+](=O)[O-])cc1)NC(=O)c1ccccc1`: 14.6 µM [falling, single point]; for `Nc1cccc(/C=C/c2ccncc2)c1`: 17.8 µM [falling, partial curve, poor fit]; for `Cc1cc(Cl)ccc1OCC(=O)N(Cc1ccco1)C1CCS(=O)(=O)C1` (stereo not given): 12.6 µM [falling, single point].
`Cc1cc(=O)[nH]c(SCC(=O)c2ccc(F)c(C)c2)n1`: the AC50 under setting [1] is 11.2 µM [falling, partial curve, poor fit].
With `O=C(Nc1ncc([N+](=O)[O-])s1)c1ccc2c(c1)OCO2`, under setting [1], the AC50 is 0.0891 µM [falling, full curve, poor fit].
For the compound `Cc1nc(SCc2cccc(Oc3ccccc3)c2)n[nH]1`, under setting [1], the AC50 was 8.91 µM [rising, partial curve, poor fit].
On the same count and under the same terms, the same measure for `N=c1c2c(-c3ccccc3)c(-c3ccccc3)n(Cc3ccccc3)c2ncn1CCCO`: 8.91 µM [falling, partial curve, poor fit].
The same measure, in the same setting: the same measure for `CCC1(C)Cc2ccccc2-c2nc(NCCCO)[nH]c(=O)c21` (stereo not given): 35.5 µM [falling, single point].
Same read-out and setting: the same measure for `Cc1cccc(-c2noc(-c3ccc(F)cc3)n2)c1`: 32.6 µM [falling, single point].
For the compound `Cc1cccc(NC(=O)CS(=O)CC(=O)Nc2cnc3ccccc3c2)c1C` (stereo not given), the AC50 under setting [1] was 8.91 µM [falling, partial curve, poor fit].
Still for that read-out and setting: the same measure for `Cc1cc(C)n2nc(C(=O)NCc3cccc(C(F)(F)F)c3)nc2n1`: 35.5 µM [rising, single point]; for `NS(=O)(=O)c1cccc(Nc2nc3ccccc3nc2NS(=O)(=O)c2ccc(Cl)cc2)c1`: 23.1 µM [rising, single point].
As for `CCOC(=O)CC(=O)CSc1nc2ccsc2c(=O)n1Cc1ccccc1`, the AC50 under setting [1] was 11.2 µM [falling, partial curve, poor fit] and the AC50 (measured here: IkBa-CBG green luminescence) was 25.1 µM [rising, partial curve, poor fit].
Consider `Cc1nc2ccccc2c2oc(C(=O)N3CCCC(C)C3)cc12` (stereo not given), for which, under setting [1], the AC50 was 35.5 µM [falling, single point].
Same read-out and setting: the same measure for `COc1cccc(NC(=O)c2ccc3c(c2)CCN3S(C)(=O)=O)c1`: 14.1 µM [falling, single point]; for `Cc1cccc(N=C2NC(=O)/C(=C\c3cccs3)S2)c1`: 8.2 µM [falling, partial curve]; for `COc1ccc(NC(=S)NCCCCCC(=O)C[N+](=O)[O-])cc1`: 11.2 µM [falling, partial curve].
Same read-out and setting: the same measure for `O=C(NCc1ccccc1CN1CCCC1)c1cccc(S(=O)(=O)Nc2ccc(F)cc2)c1`: 18.4 µM [falling, single point]; for `CCOc1ccc(C2C(C(=O)c3ccc(C)o3)=C(O)C(=O)N2c2nc(C)c(C(=O)OC)s2)cc1` (stereo not given): 10 µM [falling, partial curve, poor fit]; for `CC(=O)NC(CCS(C)(=O)=O)C(=O)Nc1ccc2c(c1)OCCO2` (stereo not given): 29.1 µM [rising, single point].
For `COc1ccc(NC(=O)c2cc(-c3ccco3)on2)cc1`, under setting [1], the AC50 was 25.1 µM [falling, single point].
Still for that read-out and setting: the same measure for `O=C(/C=C/c1ccccc1)NCC(=O)N/N=C\c1cccnc1`: 25.9 µM [rising, single point]; for `CCC1CCCCN1C(=O)c1nn2cccnc2c1Cl` (stereo not given): 32.6 µM [rising, single point]; for `O=C1c2ccccc2NC(c2cccc(O)c2)N1O` (stereo not given): 11.2 µM [falling, partial curve, poor fit].
Turning to `CNC(=O)C(=O)N/N=C/c1cccnc1`, the AC50 under setting [1] is 3.16 µM [falling, partial curve, poor fit].
Regarding `C#CCn1c(=NC(=O)c2ccc(Cl)s2)sc2cccc(OC)c21`, under setting [1], the AC50 is 8.2 µM [falling, partial curve].
The same measure, in the same setting: the same measure for `CCC(C(=O)NC1CCCC1)N(Cc1ccco1)C(=O)Cn1nnc(-c2ccc(C)cc2)n1` (stereo not given): 6.51 µM [falling, single point].
Same read-out and setting: the same measure for `C=CCC[C@@H](Cc1ccc(F)cc1)C(=O)OC[C@@H](NC(=O)[C@@H](CC=C)CC(=O)N[C@@H](CO)Cc1ccccc1)C(C)(C)C`: 23.1 µM [falling, single point].
As to `Cc1nc2cc(-c3cccc(F)c3)nn2c(C)c1CCC(=O)N1CCN(c2ccccn2)CC1`, the AC50 under setting [1] was 5.62 µM [falling, full curve, poor fit].
For `O=C(CCn1cccc1)Nc1ccc(F)cc1`, under setting [1], the AC50 is 16.4 µM [rising, partial curve].
On the same count and under the same terms, the same measure for `O=C(/C=C/c1ccccc1)NCCOc1ccccc1`: 29.1 µM [falling, single point].
Turning to `CC(=O)N1c2ccc(S(=O)(=O)NCCC(=O)N(C)C3CCCCC3)cc2CC1C` (stereo not given), the AC50 under setting [1] was 35.5 µM [rising, single point].
Consider `COc1ccc(NC(=O)CSc2nnnn2C2CC2)cc1S(=O)(=O)N1CCOCC1`, for which, under setting [1], the AC50 is 14.6 µM [rising, partial curve, poor fit].
Same read-out and setting: the same measure for `Cc1ccc(C2=NS(=O)(=O)N(C)C(C(=O)Nc3ccc(F)cc3F)=C2)cc1`: 10 µM [falling, partial curve, poor fit].
The same measure, in the same setting: the same measure for `COc1ccc(C)cc1NC(=O)c1nn(C)c(C(=O)Nc2cc(C)ccc2OC)c1[N+](=O)[O-]`: 0.501 µM [rising, full curve, poor fit]; for `O=C1CCCc2cc3c(cc21)CC1(C3)Cc2cc3c(cc2C1)C(=O)CCC3`: 7.94 µM [falling, partial curve].
On the same count and under the same terms, the same measure for `O=S(=O)(c1ccccc1)c1nc(-c2ccccc2Cl)oc1NCCCN1CCOCC1`: 23.1 µM [falling, partial curve, poor fit].
On to `CN(C)C(=S)Nc1ccc(Cl)cc1`, for which the concentration at half-maximal activity (AC50) under setting [1] was 17.8 µM [rising, partial curve, poor fit].
For `CCc1ccc(NC(=O)NCc2ccc3c(c2)OCO3)cc1`, under setting [1], the AC50 was 8.91 µM [falling, partial curve].
As to `CCc1ccc(NC(=O)[C@@H](NC(=O)[C@@H]2Cc3ccccc3CN2)C(C)CC)cc1` (stereo not given in full), the AC50 under setting [1] was 0.708 µM [rising, full curve, poor fit].
As for `CCCCCC(=O)N(CN1C(=O)CCC1=O)c1ccccc1`, under setting [1], the half-maximal activity concentration (AC50) was 1.46 µM [falling, partial curve].
Regarding `O=C(Nc1ccccc1Cl)N1CCN(c2ncccn2)CC1`, the AC50 under setting [1] is 18.4 µM [falling, single point].
Turning to `Cc1nc(CNC(=O)CC2C(=O)NCCN2Cc2cccc(Oc3ccccc3)c2)cs1` (stereo not given), the AC50 under setting [1] is 1.12 µM [rising, partial curve, poor fit].
Regarding `CCc1ccc2nc(NC(=O)c3ccc(N4C(=O)CCC4=O)cc3)sc2c1`, under setting [1], the AC50 is 8.91 µM [falling, partial curve].
The same measure, in the same setting: the same measure for `CCN(CC)CC#CCC(O)(c1ccccc1)c1ccc(Br)cc1` (stereo not given): 35.5 µM [falling, single point]; for `FC(F)Sc1ccc(NC2=NCCCCC2)cc1`: 11.2 µM [falling, partial curve].
On the same count and under the same terms, the same measure for `O=C(CN1CCCCCC1)Nc1ccc(Br)cc1`: 29.1 µM [falling, single point]; for `Cc1ccc(C)n1-c1ccc(C(=O)NN)cc1`: 3.26 µM [falling, full curve, poor fit]; for `N#Cc1ccccc1OCC(=O)Nc1ccc2c(c1)OCCCO2`: 15.8 µM [falling, single point].
Consider `N#CCCN(C(=O)Nc1ccc(Cl)cc1)c1ccccc1`, for which the AC50 under setting [1] is 5.8 µM [rising, full curve].
On the same count and under the same terms, the same measure for `Cc1sc2nc(SCC(=O)Nc3ccc(S(N)(=O)=O)cc3)[nH]c(=O)c2c1C`: 0.501 µM [falling, partial curve, poor fit]; for `COc1ccc(-c2nc(N)nc(C(F)(F)F)c2-c2cscn2)c(O)c1`: 3.55 µM [falling, partial curve, poor fit].
With `N#Cc1nn(-c2ccccc2)nc1N1CCCCC1`, under setting [1], the half-maximal activity concentration (AC50) was 29.1 µM [rising, single point].
`Nc1nc(Sc2c([N+](=O)[O-])cc(C(F)(F)F)cc2[N+](=O)[O-])n[nH]1`: the AC50 under setting [1] was 35.5 µM [falling, single point].
Take `Cc1cccc(-c2ccc3ncnc(NCc4cccnc4)c3c2)c1`: the AC50 under setting [1] was 1.64 µM [rising, partial curve, poor fit].
Same read-out and setting: the same measure for `COC(=O)CSC1=NS(=O)(=O)c2ccccc21`: 3.66 µM [rising, full curve, poor fit]; for `O=C(COC(=O)c1ccc([N+](=O)[O-])cc1Cl)NCc1ccco1`: 9.2 µM [rising, partial curve, poor fit].
